Source: PubChem BioAssay (EPA / NIEHS)
The inconclusive results got no clear call from the source; some entries with a clear call stand among them for comparison. Potencies of inconclusive entries are doubtful fits and often do not repeat. Active and inactive are the calls of the source. How the source made its calls: active means hit-call score of the fitted dose curve at least 0.9, where 1 is the maximum; inconclusive means response in the unintended direction; inactive means score below 0.9.

test: Tanguay_ZF_120hpf_NC_legacy: (Legacy) Oregon State University Tanguay Lab 120 Hour Post-fertilization zebrafish Assay for Notochord and Tail Malformation (AID 2283656)
Summary of the method: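 Dechorionated Tropical 5D wild-type zebrafish embryos, one per well from 6 hpf, statically exposed to 120 hpf at 28C in 0.64% DMSO final. Notochord distortion scored present/absent by brightfield; dead embryos excluded.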

| Structure (SMILES) | AC50 | outcome |
| --- | --- | --- |
| CCCCOC(=O)[C@@H](C)Oc1ccc(Oc2ccc(C(F)(F)F)cn2)cc1 | inconclusive: 49.4 µM |  |
| CSc1ccc(Oc2ccc(S(N)(=O)=O)cc2CN(C)C)cc1C | inconclusive: 0.0015 µM |  |
| O=[N+]([O-])c1ccc(O)cc1 | inconclusive: 0.000638 µM |  |
| CC(C)(O)c1ccc(CNC(=O)c2cccnc2Oc2ccc3nonc3c2)cc1 | inconclusive: 202 µM |  |
| NS(=O)(=O)c1cc2c(cc1Cl)NCNS2(=O)=O |  | inactive |
| CCCCCCCCCCCCCCCCCC(=O)O | inconclusive: 38.1 µM |  |
| Cc1cccc([N+](=O)[O-])c1C |  | inactive |
| CN(C)c1ccc(C(=C2C=CC(=[N+](C)C)C=C2)c2ccc(N(C)C)cc2)cc1 | inconclusive: 4.99 µM |  |
| Cc1nn(C)c(Oc2ccccc2)c1C=NOCc1ccc(C(=O)OC(C)(C)C)cc1 | inconclusive: 5.82 µM |  |
| C=CN1CCCC1=O | inconclusive: 108 µM |  |
| Clc1ccccc1C(c1ccccc1)(c1ccccc1)n1ccnc1 |  | inactive |
| N[C@@H](Cc1cc(I)c(Oc2ccc(O)c(I)c2)c(I)c1)C(=O)O | inconclusive: 159 µM |  |
| C[C@]12CC[C@@H]3c4ccc(O)cc4C[C@@H](CCCCCCCCCS(=O)CCCC(F)(F)C(F)(F)F)[C@H]3[C@@H]1CC[C@@H]2O (stereo partly specified) | inconclusive: 43.9 µM |  |
| OC1CCC(C2CCCCC2)CC1 (stereo unspecified) | inconclusive: 1.57 µM |  |
| O=c1[nH]c2ccc(S(=O)CCN3CCC(Cc4ccc(F)cc4)CC3)cc2o1 (stereo unspecified) | inconclusive: 25.7 µM |  |
| N#C[C@@H]1CC(F)(F)CN1C(=O)CNC1CC2CCC(C1)N2c1ncccn1 (stereo partly specified) | inconclusive: 35.5 µM |  |

Two records drawn at random from the list so far:

| Structure (SMILES) | AC50 | outcome |
| --- | --- | --- |
| CC(C)(O)c1ccc(CNC(=O)c2cccnc2Oc2ccc3nonc3c2)cc1 | inconclusive: 202 µM |  |
| O=[N+]([O-])c1ccc(O)cc1 | inconclusive: 0.000638 µM |  |
